# Experimental data published in PubChem BioAssay AID588590 (National Center for Advancing Translational Sciences (NCATS), 2011).
# Chains of the proteins cited; added tags and fusions are not shown. Lines headed by an entry give the natural chain unless they say otherwise; changes in a name come on top.
# UniProt Q9UNA4: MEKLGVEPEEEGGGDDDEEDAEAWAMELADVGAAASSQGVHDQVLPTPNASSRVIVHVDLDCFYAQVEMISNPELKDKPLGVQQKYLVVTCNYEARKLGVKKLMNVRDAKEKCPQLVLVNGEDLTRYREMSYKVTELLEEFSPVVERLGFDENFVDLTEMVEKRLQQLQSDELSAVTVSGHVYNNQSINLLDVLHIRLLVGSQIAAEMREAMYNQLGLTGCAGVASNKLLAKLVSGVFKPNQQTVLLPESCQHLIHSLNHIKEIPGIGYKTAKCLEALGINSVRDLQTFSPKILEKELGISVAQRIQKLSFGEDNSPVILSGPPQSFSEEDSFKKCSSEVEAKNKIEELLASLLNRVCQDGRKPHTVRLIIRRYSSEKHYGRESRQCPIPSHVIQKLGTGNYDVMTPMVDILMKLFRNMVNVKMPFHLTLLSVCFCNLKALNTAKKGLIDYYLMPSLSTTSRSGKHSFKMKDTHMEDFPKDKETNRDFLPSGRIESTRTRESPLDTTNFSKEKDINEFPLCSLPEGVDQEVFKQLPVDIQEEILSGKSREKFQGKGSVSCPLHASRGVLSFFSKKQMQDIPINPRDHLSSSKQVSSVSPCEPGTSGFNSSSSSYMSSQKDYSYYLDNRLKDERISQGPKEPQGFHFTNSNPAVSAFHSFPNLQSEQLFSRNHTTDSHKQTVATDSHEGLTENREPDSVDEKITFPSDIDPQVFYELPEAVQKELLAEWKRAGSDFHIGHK
# The campaign covered roughly 390,000 compounds. About 4,000 (1%) were called active. Inconclusive results, whose numbers are uncertain, are shown with a selection of clear calls. Calls come from the whole dose curve; as a rule, active = well fitted inhibition curve with a large enough effect; inconclusive = small, poorly fitted or top-dose-only effect, or another doubt; inactive = no such curve, though single readings can be large or run the other way. A potency beside an inconclusive call is a rough fit, not a confirmed value.
# Molecular target: DNA polymerase iota (Homo sapiens) (UniProt Q9UNA4)
# Test: qHTS for Inhibitors of Polymerase Iota
# Conditions: Pol iota fluorescent replication assay, 10 min; series mostly up to 115 µM
# Outline: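 Pol iota at 10 nM preincubated 15 min with compounds at room temperature; reaction started with fluorescent substrate, 50 nM final. Fluorescence read kinetically at 0 and 10 min; buffer-only wells as negative control.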
# Potency is the fitted concentration of half-maximal effect.
row,Structure (SMILES),Potency
1,O=C(O)c1ccc(N/N=C/c2cn(Cc3ccccc3F)c3ccccc23)cc1,"inconclusive: 15.8 µM [inhibitor, full curve, poor fit]"
2,CCC1CCC(N2CCN(c3ccccc3F)CC2)CC1 (stereo not drawn),"inconclusive: 5.01 µM [inhibitor, full curve]"
3,C/C(=N\NC(=S)NCc1ccccc1)c1ccc2c(c1)OCCO2,inactive
4,Cc1cc(C(=O)NCc2ccco2)cs1,"inconclusive: 79.4 µM [inhibitor, partial curve]"
5,COC(=O)CN1C(=S)N(c2ccc(F)cc2)C(=O)C1CC(=O)Nc1ccc(OC)cc1 (stereo not drawn),"inconclusive: 14.1 µM [inhibitor, partial curve, poor fit]"
6,COc1ccc(-c2nnc(SCC(=O)N3CCc4ccccc43)o2)cc1OC,inactive
7,Cc1cc2cc(CNC(=O)c3ccco3)ccc2n1C,"inconclusive: 50.1 µM [inhibitor, single point]"
8,Cc1c(NC(=O)c2cccc(-c3cc4ccccc4oc3=O)c2)cccc1-c1nc2ncccc2o1,"inconclusive: 25.1 µM [inhibitor, full curve, poor fit]"
9,CCCCn1c(CNC(=O)CC)nc2ccccc21,"inconclusive: 63.1 µM [inhibitor, partial curve, poor fit]"
10,O=C(Nc1scc(-c2cccs2)c1C(=O)O)c1cccs1,"inconclusive: 22.4 µM [inhibitor, single point]"
11,CC(C)CCNc1nc(N)c([N+](=O)[O-])c(NC2CCCCC2)n1,"inconclusive: 22.4 µM [inhibitor, single point]"
12,CCOC(=O)COc1ccc2c(c1)C(=O)CC1(CCN(C(C)=O)CC1)O2,"inconclusive: 89.1 µM [inhibitor, single point]"
13,C#CCOCCOCCOCCNc1nc(N2CCN(C(=O)CCCCCCCCCCNC(=O)Cn3cc(C[C@@H](C)O)nn3)CC2)nc(N2CCN(C(=O)CCCCCCCCCCNC(=O)[C@@H](CCSC)n3cc(CCO)nn3)CC2)n1,inactive
14,Nc1cc2nn(-c3ccccc3)nc2cc1Cl,"inconclusive: 8.91 µM [inhibitor, full curve, poor fit]"
15,Cc1ccc(C)c2sc(NC(=O)C3CC3)nc12,"inconclusive: 10 µM [inhibitor, partial curve, poor fit]"
16,CCN(CC)c1ccc(C2C(C(=O)Nc3ccccc3C)=C(C)Nc3ncnn32)cc1 (stereo not drawn),inactive
17,CCN(CCO)c1ccc(NC(=S)Nc2cccc(S(=O)(=O)N(C)C)c2)cc1,"inconclusive: 50.1 µM [inhibitor, partial curve, poor fit]"
18,O=C1CC(N(CCc2ccccc2)C(=S)Nc2ccccc2)C(=O)N1c1ccccc1 (stereo not drawn),"inconclusive: 79.4 µM [inhibitor, partial curve]"

# Copied from the listing, 2 compounds:
row,Structure (SMILES),Potency
5,COC(=O)CN1C(=S)N(c2ccc(F)cc2)C(=O)C1CC(=O)Nc1ccc(OC)cc1 (stereo not drawn),"inconclusive: 14.1 µM [inhibitor, partial curve, poor fit]"
6,COc1ccc(-c2nnc(SCC(=O)N3CCc4ccccc43)o2)cc1OC,inactive
